This data set has as its system T4L-β2AR-Gs or β2AR-Gs complexes. The data set can be described thus: purification and stability of T4L-β2AR-Gs or β2AR-Gs complexes (analytical gel filtration, negative staining EM). Further details: species or system human. How it is done:
The ability of PSE-C11 or TPS-E10L to purify and stabilize T4L-β2AR-Gs or β2AR-Gs complexes was measured using electron microscopy (EM) analysis.
Specifically, measurement of the ability of PSE-C11 for TPS-E10L to purify and stabilize T4L-β2AR-Gs or β2AR-Gs complexes was performed as follows. 100 μM T4L-β2AR solubilized in 0.1 wt % DDM was mixed with 120 μM Gs heterotrimers for 30 minutes. 0.5 units of apyrase (NEB) and 2 mM MgCl2 were added to the mixture, followed by a 1-hour incubation to form complexes. 1 wt % PSE-C11 or TPS-E10L was respectively added to the mixture to achieve a final concentration of 0.8%, and incubated for 30 minutes to allow DDM to be exchanged with PSE-C11 or TPS-E10L. […] Finally, proteins were eluted with a 0.05% (100×CMC) PSE-C11 or TPS-E10L buffer. Gel filtration was performed using a running buffer (20 mM HEPES (pH 7.5), 100 mM NaCl, 0.005% PSE-C11 or TPS-E10L, 1 μM BI, 100 μM TCEP) to purify T4L-β2AR-Gs complexes. To measure the stability of β2AR-Gs complexes present in PSE-C11 or TPS-E10L, analytical gel filtration was performed with running buffers of the same formulation at 12 hours, 1 day, 3 days, 7 days, and 15 days. […]
In addition, negative staining EM analysis for T4L-β2AR-Gs or β2AR-Gs complexes present in PSE-C11 was performed as follows. […] Images were recorded with a Gatan US4000 CCD camera at a 71,138×magnification with a defocus value of ˜[…].
On the technique in general: In gel filtration, larger molecules generally elute earlier.

Regarding `CCCCCCCCCCCOCC(COCCCCCCCCCCC)O[C@@H]1OC(CO[C@@H]2OC(CO)[C@@H](O)C(O)C2O)[C@@H](O[C@@H]2OC(CO)[C@@H](O)C(O)C2O)C(O[C@@H]2OC(CO)[C@@H](O)C(O)C2O)C1O[C@@H]1OC(CO)[C@@H](O)C(O)C1O` (some centres unmarked) [PSE-C11], the “negative staining EM images of purified complexes” value is “high monodispersibility without aggregation or denaturation”. On to `CCCCCCCCCCOCC(COCCCCCCCCCC)(COCCCCCCCCCC)CO[C@@H]1OC(COCCCO[C@@H]2OC(CO)[C@@H](O)C(O)C2O)[C@@H](OCCCO[C@@H]2OC(CO)[C@@H](O)C(O)C2O)C(OCCCO[C@@H]2OC(CO)[C@@H](O)C(O)C2O)C1OCCCO[C@@H]1OC(CO)[C@@H](O)C(O)C1O` (some centres unmarked) [TPS-E10L], for which the “negative staining EM images of purified complexes” value was “high monodispersibility without aggregation or denaturation”.

The values above are taken from patent US20190169218A1, “AMPHIPATHIC COMPOUND HAVING NOVEL PENTA-SACCHARIDE HYDROPHILIC GROUP AND USE THEREOF” (Industry-University Cooperation Foundation Hanyang …, priority 2016, published 2019).
